Among the data in patent US20210324075A1 are binding values, retold here.

Results are given in words; binding and its absence hold for the method and conditions named. Binding calls can cover weak binding; strength is not graded here.

First the molecules themselves.
B1: Vx10 (antibody, V domains shown)
VH: QVQLQQSGAELAKPGASVKMSCKASGYTFTNYWIHWIKQRPGQGLEWIGYIDPNTVYTDYNQRFEDKATLTADKSSNTAYMQLNSLTSEDSAVYYCSRGGKRGVDSWGQGTSVTVSS
VL: DVVMTQTPLSLPVSLGDQASISCRSSQSLENSNGDTYLNWYLQKPGQSPQLLIYRVSNRFSGVLDRFSGSGSGTDFTLQISRVEAEDLGVYFCLQVSHVPWTFGGGTNLEIK
B2: Vx11 (antibody, V domains shown)
VH: EVQLQQSGAQLVKPGTSMKLSCKASGYTFTNYFLYWVKQRPGQGLEWIGDINPNAGSTNLNERFKSKATLTVDKSSSTAYLQLSGLTSEDSAVYYCTRGGYTMDYWGQGTSVTVSS
VL: B1 VL
B3: Vx13 (antibody, V domains shown)
VH: EVQLQQSGPEVVKPGASVRISCKASDYTFTNYYIHWVRQRPGQGLEWIGWIYPGNNNNKYNEKFKGKATLTEDTSSSTAYMQLSSLTSEDSAVYFCARGGYTMDYWGQG
VL: DVLMTQTPLSLPVSLGDQASISCRSSQSLVHSNGNTYLHWYLQKPGQSPNLLIYKVSNRFSGVPDRFSGSGSGTDFTLKINRVETEDLGIYFCSQSTHVLTFGAG

The assay concerns the target dog CD47 (dog). Nature of the assay: flow cytometry on dog RBCs.
B1: the binding result is recorded as “binds”.
Turning to B2, the binding entry was “binds”.
Take B3: the binding entry is on record as “binds”.
